Structures can show the parent of a compound that is named as a salt. Where two headings read alike, the source gives them in different places. Among all 3,300 compounds or so, about 95 (3%) showed an effect of 50% or more. Some of the results follow.

We go through 59 compounds from PMC12431657, “Discovery and mechanistic insights of dibenzoylmethane as a broad spectrum inhibitor of coronavirus” (PLOS Pathogens, 2025).

This assay concerns HCoV-229E. More on the design: species or system Huh-7; HTS, protection from HCoV-229E induced cell death, luminescent cell viability (CellCounting-Lite 2.0), inhibition rate. The note with it: 24 h post infection, 1 h compound pre-incubation, 10 µM, inhibitor.

Regarding `C[C@@]12C[C@@]3(O)O[C@@H](O1)[C@]1(COC(=O)c4ccc(O)cc4)[C@H]3C[C@@]12O[C@@H]1O[C@H](COC(=O)c2ccccc2)[C@@H](O)[C@H](O)[C@H]1O` [Benzoyloxypaeoniflorin], the “229E Inhibition rate” value is listed as 6.6%.
The same measure, in the same setting: the result for `O=C(O)Cc1cccc(O)c1` [3-Hydroxyphenylacetic acid] reads 11%; that for `N[C@@H](CCC[C@H](N)C(=O)O)C(=O)O` [2,6-Diaminoheptanedioic acid], 16.6%.
The same measure, in the same setting: the result for `C=C1[C@H](OC(=O)/C=C(\C)CC)C[C@@H](C(C)C)[C@@H]2[C@@H]([C@@H](C)OC(C)=O)C(=O)C[C@@H]12` [Tussilagone] reads 14.3%; that for `O=P(O)(O)O[C@H]1O[C@H](CO)[C@@H](O)[C@H](O)[C@H]1O` [α-D-Glucose-1-phosphate (disodium hydrate)], 17.2%; that for `O=C1C[C@@H](c2ccccc2)Oc2cc(O)cc(O)c21` [Pinocembrin], 31.1%.
On the same count and under the same terms, the result for `N[C@H]1[C@H](O[C@H]2[C@H](O)[C@@H](N)[C@H](O[C@H]3[C@H](O)[C@@H](N)[C@H](O[C@H]4[C@H](O)[C@@H](N)[C@H](O[C@@H]([C@H](O)[C@@H](N)C=O)[C@H](O)CO)O[C@@H]4CO)O[C@@H]3CO)O[C@@H]2CO)O[C@H](CO)[C@@H](O)[C@@H]1O` [Chitopentaose (pentahydrochloride)] reads 15.4%; that for `C=C1C(=O)O[C@H]2C[C@@H](C)[C@@H]3C=CC(=O)[C@@]3(C)[C@@H](OC(C)=O)[C@H]12` [Bigelovin], 4.5%; that for `C[C@H]1[C@H]2[C@H](O[C@@H]3O[C@H](CO)[C@@H](O)[C@H](O)[C@H]3O)OC=C(C(=O)O)[C@H]2C[C@@H]1O` [8-Epiloganic acid], 16.3%.
As for `CC1=NCC[C@@H](C(=O)O)N1` [Ectoine], the “229E Inhibition rate” value came out at 11.8%.
Same read-out and setting: the result for `Oc1cccc2ccccc12` [1-Naphthol] reads 14.6%.
On to `COC(=O)/C=C/c1ccc(O)cc1` [Methyl p-coumarate], for which the “229E Inhibition rate” value (229E Inhibition rate, 24 h) is reported as 15.5%.
`O=C1O[C@H]([C@@H](O)CO)C(O)=C1OP(=O)(O)O` [L-Ascorbic acid 2-phosphate (trisodium)]: the “229E Inhibition rate” value is 10.8%.
On the same count and under the same terms, the result for `C[C@H](O)CO` [(S)-(+)-1,2-Propanediol] reads 27%.
Still for that read-out and setting: the result for `COC(=O)c1cc(O)c(O)c(OC)c1` [Methyl 3-O-methylgallate] reads 23.6%.
With `O=C1C[C@@H](O[C@@H]2O[C@H](CO)[C@@H](O)[C@H](O)[C@H]2O)CO1` [Kinsenoside], the “229E Inhibition rate” value came to 14.3%.
Still for that read-out and setting: the result for `CC(C)C[C@@H](N)C(=O)O` [D-Leucine] reads 7.1%; that for `CCCCCCCCC/C=C/C(=O)CCc1ccc(O)c(OC)c1` [[10]-Shogaol], 9.6%; that for `C[n+]1c2n(c(=O)c3ccccc31)CCc1c-2[nH]c2ccccc12` [Dehydroevodiamine (hydrochloride)], 28.8%.
The same measure, in the same setting: the result for `CO[C@H]1C[C@H](O[C@H]2[C@H](C)O[C@@H](O[C@@H]3/C(C)=C/C[C@@H]4C[C@@H](C[C@]5(C=C[C@H](C)[C@@H](C6CCCCC6)O5)O4)OC(=O)[C@@H]4C=C(C)[C@@H](O)[C@H]5OC/C(=C\C=C\[C@@H]3C)[C@]54O)C[C@@H]2OC)O[C@@H](C)[C@@H]1O` [Doramectin] reads 25.8%; that for `CC(=O)O[C@H]1CC[C@]2(C)C3=C(CC[C@H]2C1(C)C)[C@]1(C)CC[C@H]([C@@H](CCC=C(C)C)C(=O)O)[C@@]1(C)CC3` [Tsugaric acid A], 14.6%; that for `Cc1c2ccncc2c(C)c2c1[nH]c1ccccc12` [Ellipticine (hydrochloride)], 3.3%.
Take `CC1(C)C=Cc2c(ccc(-c3coc4cc(O)ccc4c3=O)c2O)O1` [Glabrone]: the “229E Inhibition rate” value was determined as 9.7%.
Still for that read-out and setting: the result for `CC(C)=C/C=C1\O[C@@H]2CC(C)=CC(=O)[C@@H]2[C@]1(C)O` [Bisabolangelone] reads 30%; that for `O=C(O)c1ccc(O)c(O)c1` [Protocatechuic acid], 4.4%.
Take `CC(C)NCC(O)COc1cccc2ccccc12` (centres unmarked) [Propranolol]: the “229E Inhibition rate” value (229E Inhibition rate, 24 h) came out at 13.6%.
For `O=C1CCCCN1` [2-Piperidone], the “229E Inhibition rate” value is given as 11.6%.
The same measure, in the same setting: the result for `C=C(C)[C@@H]1CC=C(C)CC1` [(-)-Limonene] reads 28.1%.
Regarding `CC1NC(=O)CNC1=O` (centres unmarked) [Cyclo(Ala-Gly)], the “229E Inhibition rate” value came out at 39.9%.
On the same count and under the same terms, the result for `C=C(C(=O)c1c(OC)cc2c(c1OC)OCO2)c1ccccc1O` [Biliatresone] reads 1.5%; that for `CCC(=O)C(C)=O` [2,3-Pentanedione], 0%; that for `CCCCCCCCCCCCCCCCCCOCC(O)CO` (centres unmarked) [Batilol], 11.7%.
Still for that read-out and setting: the result for `C=C1C(=O)O[C@H]2C[C@@H](C)[C@@H]3[C@@H](OC(C)=O)C[C@H](O)[C@@]3(C)[C@@H](OC(C)=O)[C@H]12` [Britannin] reads 3%.
Still for that read-out and setting: the result for `N#Cc1ccc(C(c2ccc(C#N)cc2)n2cncn2)cc1` [Letrozole] reads 10.7%; that for `CC1=C[C@H]2[C@@]3(O)[C@H](C)[C@@H](O)[C@]4(O)[C@H]([C@@H]3C=C(CO)C[C@]2(O)C1=O)C4(C)C` [Phorbol], 48.6%.
`N[C@@H](Cc1c[nH]cn1)C(=O)O` [L-Histidine (hydrochloride hydrate)]: the “229E Inhibition rate” value (229E Inhibition rate, 24 h) is listed as 7%.
Take `CC(C)CC(N)=O` [Isovaleramide]: the “229E Inhibition rate” value amounted to 31.1%.
The same measure, in the same setting: the result for `CC1(C)CC[C@]2(C(=O)O[C@@H]3O[C@H](CO)[C@@H](O)[C@H](O)[C@H]3O)CC[C@]3(C)C(=CC[C@@H]4[C@@]5(C)CC[C@H](O[C@@H]6O[C@H](C(=O)O)[C@@H](O)[C@H](O)[C@H]6O)C(C)(C)[C@@H]5CC[C@]43C)[C@@H]2C1` [Chikusetsusaponin Iva] reads 16%; that for `COc1ccc(CCO)cc1` [4-Methoxyphenethyl alcohol], 5.3%; that for `COc1c2occc2cc2ccc(=O)oc12` [Methoxsalen], 9.9%.
On to `O=C(N[C@@H](Cc1ccccc1)C(=O)N[C@H](CO)Cc1ccccc1)c1ccccc1` [Aurantiamide], for which the “229E Inhibition rate” value was 23.1%.
On the same count and under the same terms, the result for `Oc1ccc2ccccc2c1` [2-Naphthol] reads 16.6%.
Still for that read-out and setting: the result for `CSCCC(NC(C)=O)C(=O)O` (racemic) [N-Acetyl-DL-methionine] reads 32.7%; that for `C=C[C@H]1[C@H](O[C@@H]2O[C@H](CO)[C@@H](O)[C@H](O)[C@H]2O)OC=C2C(=O)N3CCc4c([nH]c5ccccc45)[C@@H]3C[C@H]21` [Strictosamide], 26.8%.
The same measure, in the same setting: the result for `OC[C@@H](O)[C@@H](O)[C@H](O)[C@@H](O)CO` [D-Sorbitol] reads 32.7%; that for `O=C1CCN([C@@H]2O[C@H](CO)[C@@H](O)[C@H]2O)C(=O)N1` [5,6-Dihydrouridine], 10.1%.
Regarding `COc1cc2c(cc1OC)-c1cc3ccc(OC)c(O)c3c[n+]1CC2` [Palmaturbine], under “229E Inhibition rate, 24 h”, the “229E Inhibition rate” value is given as 10%.
Regarding `CC1(C)O[C@H]2CC(=O)OC[C@@]23[C@H]1CC(=O)[C@@]1(C)C2=CC(=O)O[C@@H](c4ccoc4)[C@]2(C)CC[C@@H]13` [Deoxylimonin], the “229E Inhibition rate” value worked out at 9.8%.
On the same count and under the same terms, the result for `C[C@@H]1O[C@@H](O[C@H]2C(=O)c3c(O)cc(O)cc3O[C@H]2c2ccc(O)c(O)c2)[C@H](O)[C@H](O)[C@H]1O` [Neoisoastilbin] reads 23.6%; that for `CC1(C)CC[C@]2(C(=O)O[C@@H]3O[C@H](CO)[C@@H](O)[C@H](O)[C@H]3O)[C@H](O)C[C@]3(C)C(=CC[C@@H]4[C@@]5(C)CC[C@H](O[C@@H]6O[C@H](CO)[C@@H](O)[C@H](O)[C@H]6O)C(C)(C)[C@@H]5CC[C@]43C)[C@@H]2C1` [Eclalbasaponin I], 18.5%; that for `CC(=O)OCC(=O)[C@@]1(O)CC[C@H]2[C@@H]3CCC4=CC(=O)CC[C@]4(C)[C@H]3C(=O)C[C@@]21C` [Cortisone acetate], 14.1%.
Still for that read-out and setting: the result for `Cc1ncc(C[n+]2csc(CCOP(=O)(O)O)c2C)c(N)n1` [Thiamine monophosphate (chloride) (dihydrate)] reads 12.1%; that for `C[S+](CCC(N)C(=O)[O-])C[C@H]1O[C@@H](n2cnc3c(N)ncnc32)[C@H](O)[C@@H]1O` (mixture of isomers) [S-Adenosyl-DL-methionine], 7.2%.
Same read-out and setting: the result for `C[C@]12CCC(=O)C[C@H]1CC[C@@H]1[C@@H]2[C@@H](O)C[C@@]2(C)[C@H]1CC[C@]2(O)C(=O)CO` [5β-Dihydrocortisol] reads 24%; that for `COc1cc(O)c(C(C)=O)c(OC)c1` [Xanthoxylin], 7.1%.
Consider `CC(C)=C[C@H]1C[C@](C)(O)[C@@H]2[C@H]3CC[C@@H]4[C@@]5(C)CC[C@H](O[C@@H]6OC[C@H](O)[C@H](O[C@@H]7O[C@H](CO)[C@@H](O)[C@H](O)[C@H]7O[C@@H]7OC[C@@H](O)[C@H](O)[C@H]7O)[C@H]6O[C@@H]6O[C@@H](C)[C@H](O)[C@@H](O)[C@H]6O)C(C)(C)[C@@H]5CC[C@@]4(C)[C@@]34CO[C@@]2(C4)O1` [Jujuboside B], for which the “229E Inhibition rate” value was found to be 25.2%.
On the same count and under the same terms, the result for `CC1(C)CC[C@]2(C(=O)O[C@@H]3O[C@H](CO[C@@H]4O[C@H](CO)[C@@H](O)[C@H](O)[C@H]4O)[C@@H](O)[C@H](O)[C@H]3O)CC[C@]3(C)C(=CC[C@@H]4[C@@]5(C)CC[C@H](O[C@@H]6OC[C@H](O)[C@H](O)[C@H]6O)[C@@](C)(CO)[C@@H]5CC[C@]43C)[C@@H]2C1` [Asperosaponin VI] reads 56.6%; that for `C=C(C)[C@@H]1CCC2=CCC[C@@H](C)[C@]2(C)C1` [Valencene], 10.6%; that for `O=C1c2c(O)cc(O)cc2O[C@H](c2ccc(O)c(O)c2)[C@H]1O` [Taxifolin], 21.5%.
